Taken from: PubChem BioAssay AID1159578 (Peter MacCallum Cancer Centre, 2015)
Purpose: 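siRNA pools altering how lymphatic endothelial cells close a scratch wound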 (primary screen). Cell system: human lymphatic endothelial cells. Knock-down reagent: siRNA pool against human genes, 40 nM. Duration: 48 h after transfection. Read-out: 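High-content imaging of dye-stained cells in a scratch assay measures filled wound area and nuclei per well; duplicate means given as ratio to mock and robust z-score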. Scale: migration robust z-score: higher = faster migration into the scratch; nuclei per well: higher = more cells in the well. Hit rule: 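Pools averaging fewer than 3300 nuclei are never called; remaining pools count as changed when migration robust z lies outside -2 to 2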. Calls: active = migration changed; inactive = no migration change, or too few cells.
This is one part, drawn at random, of about 18,000 deposited reagents. Over the whole deposit, about 1,030 (5.7%) were called active. 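Inactive calls also include pools with fewer than 3300 nuclei, whose migration was not assessed.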 Raw values vary from plate to plate and are shown uncorrected. A number with no mark means an inactive call. Reagents against one gene are numbered here. Further read-outs or replicates are left out here.

| Gene | reagent | migration robust z-score | nuclei per well, duplicate mean |
| --- | --- | --- | --- |
| MED24 | 1 | 0.44 | 6151 |
| GPIHBP1 | 1 | -0.5 | 5887 |
| REG3G | 1 | -1.61 | 4332 |
| CYYR1 | 1 | -1.19 | 5082 |
| KIF1C | 1 | -0.18 | 4992 |
| WNT3A | 1 | 0.32 | 5615 |
| PARS2 | 1 | 0.21 | 7252 |
| PFDN6 | 1 | -1.21 | 6166 |
| SERPINB13 | 1 | -0.39 | 6386 |
| CHEK1 | 1 | -2.21 | 3085 |
| GRIK5 | 1 | 1.9 | 6470 |
| SHC1 | 1 | -0.54 | 1598 |
| TMEM64 | 1 | -0.26 | 5887 |
| SPINT4 | 1 | 0.16 | 5530 |
| COX14 | 1 | 0.31 | 6594 |
| AJAP1 | 1 | -1.64 | 6830 |
| TMEM121B | 1 | -2.48 (active) | 4518 |
| ZNF221 | 1 | -1.15 | 5950 |
| ELP2 | 1 | -2.66 (active) | 3906 |
| DYRK1B | 1 | -0.16 | 4986 |
| PHOSPHO1 | 1 | -0.66 | 6081 |
| TULP3 | 1 | -0.1 | 5525 |
| GGH | 1 | -0.26 | 5218 |
| ANKRD13D | 1 | -0.33 | 6706 |
| UBL3 | 1 | 0.88 | 5758 |
| MTHFR | 1 | -1.25 | 6448 |
| PGBD3 | 1 | 0.7 | 5130 |
| CYP21A2 | 1 | 0.38 | 5767 |
| ERO1A | 1 | 0.47 | 4635 |
| DDX43 | 1 | -0.18 | 5594 |
| SIPA1L1 | 1 | -0.28 | 4912 |
| CCDC120 | 1 | -0.57 | 7133 |
| MRGBP | 1 | 0.16 | 5321 |
| BUB1 | 1 | -0.16 | 4766 |
| TRIL | 1 | 0.86 | 5114 |
| HYLS1 | 1 | 0.45 | 4782 |
| SPOCK2 | 1 | 1.71 | 6423 |
| KCNT2 | 1 | -0.34 | 6022 |
| OR4X1 | 1 | -1.68 | 5571 |
| TREM1 | 1 | -0.31 | 5114 |
| RBBP7 | 1 | -0.24 | 5432 |
| GEN1 | 1 | -0.88 | 5942 |
| ICAM2 | 1 | -0.26 | 6388 |
| LAMTOR1 | 1 | -0.16 | 6030 |
| OR5P2 | 1 | 0.52 | 4890 |
| CCNB2 | 1 | -0.96 | 5138 |
| ATP1A4 | 1 | -0.36 | 6846 |
| TENT5B | 1 | 0.78 | 7584 |
| SLC16A8 | 1 | -0.29 | 4507 |
| COPA | 1 | -0.91 | 5659 |
| METTL6 | 1 | 0.42 | 6250 |
| CLEC18A | 1 | 0.41 | 6387 |
| HNRNPC | 1 | -1 | 4807 |
| LAX1 | 1 | -2.75 (active) | 3339 |
| FAM76B | 1 | -1.64 | 5724 |
| CYGB | 1 | 0.5 | 4976 |
| MIA2 | 1 | -0.12 | 6522 |
| MIA2 | 2 | 2.36 (active) | 7109 |
| ZNF124 | 1 | 0.28 | 5832 |
| MYBPC1 | 1 | 0.3 | 5900 |
| OR2L13 | 1 | -1.15 | 5356 |
| CTSS | 1 | -0.78 | 5488 |
| PRPH | 1 | -0.88 | 5469 |
| ACTMAP | 1 | -0.64 | 3878 |
| SPP1 | 1 | -0.74 | 4122 |
| FAM227B | 1 | -0.11 | 7306 |
| SOWAHC | 1 | 0.1 | 6056 |
| DCAKD | 1 | -0.56 | 5086 |
| PSMG2 | 1 | -1.47 | 5556 |
| TLR5 | 1 | -0.91 | 6303 |
| IL22RA2 | 1 | 1.09 | 5196 |
| SLC68A1 | 1 | 0.8 | 7073 |
| KCNQ1 | 1 | -0.42 | 5717 |
